Laboratory results reported in the supplement of paper PMC4604168 (melanoma cell lines).
This is one part of the list. Repeats are few or missing, and single values can be far off.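 The apoptosis fraction was the count of cleaved-PARP antibody-stained nuclei relative to all DNA-stained nuclei, imaged in 1,536-well plates. Screening doses were set so most cells survived, and baseline and induced cleaved-PARP levels vary greatly across cell lines.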

Key:
Test in all cases: cleaved PARP positive nuclei fraction relative to DMSO control; melanoma cells; higher = more apoptosis
Settings in all cases: library dose: low library concentration; 72 h
501Mel = system: 501Mel
A101D = system: A101D
A2058 = system: A2058
A375 = system: A375
C32 = system: C32
CBRC008 = system: CBRC008 (line from a melanoma biopsy)
CBRC013 = system: CBRC013 (line from a melanoma biopsy)
CBRC014 = system: CBRC014 (line from a melanoma biopsy)
CBRC016 = system: CBRC016 (line from a melanoma biopsy)
CBRC017 = system: CBRC017 (line from a melanoma biopsy)
COLO792 = system: COLO792
COLO800 = system: COLO800
COLO829 = system: COLO829
G361 = system: G361
IPC-298 = system: IPC-298
IST-MEL1 = system: IST-MEL1
LB2518-MEL = system: LB2518-MEL
LOXIMVI = system: LOXIMVI
MEL-HO = system: MEL-HO

SMILES | cleaved PARP positive nuclei fraction (501Mel) [%] | cleaved PARP positive nuclei fraction (A101D) [%] | cleaved PARP positive nuclei fraction (A2058) [%] | cleaved PARP positive nuclei fraction (A375) [%] | cleaved PARP positive nuclei fraction (C32) [%] | cleaved PARP positive nuclei fraction (CBRC008) [%] | cleaved PARP positive nuclei fraction (CBRC013) [%] | cleaved PARP positive nuclei fraction (CBRC014) [%] | cleaved PARP positive nuclei fraction (CBRC016) [%] | cleaved PARP positive nuclei fraction (CBRC017) [%] | cleaved PARP positive nuclei fraction (COLO792) [%] | cleaved PARP positive nuclei fraction (COLO800) [%] | cleaved PARP positive nuclei fraction (COLO829) [%] | cleaved PARP positive nuclei fraction (G361) [%] | cleaved PARP positive nuclei fraction (IPC-298) [%] | cleaved PARP positive nuclei fraction (IST-MEL1) [%] | cleaved PARP positive nuclei fraction (LB2518-MEL) [%] | cleaved PARP positive nuclei fraction (LOXIMVI) [%] | cleaved PARP positive nuclei fraction (MEL-HO) [%]
O=C(Nc1cc(C(F)(F)F)cc(C(F)(F)F)c1)c1cc(Cl)ccc1O + OCCn1cc(-c2cnc3nnn(Cc4ccc5ncccc5c4)c3n2)cn1 [PF04217903] (first compound 0.016 µM, partner dose 1 µM) | 88 | 39 | 96.9 | 104 | 57.9 | 260 | 148 | 61.9 | 119 | 98 | 57.9 | 74.8 | 21.3 | 98.3 | 113 | 32.9 | 107 | 112 | 70.2
O=C(Nc1cc(C(F)(F)F)cc(C(F)(F)F)c1)c1cc(Cl)ccc1O + CC(C)(C)c1cnc(CSc2cnc(NC(=O)C3CCNCC3)s2)o1 [SNS-032] (first compound 0.016 µM, partner dose 0.01 µM) | 76 | 83.9 | 93.5 | 11.8 | 87.1 | 148 | 108 | 84.2 | 77.1 | 74.1 | 84 | 58.2 | 33.3 | 166 | 89.1 | 97.9 | 23.4 | 40 | 143
N#CC[C@H](C1CCCC1)n1cc(-c2ncnc3[nH]ccc23)cn1 [ruxolitinib] + NCC(=O)Nc1ccc(-n2nc(C(F)(F)F)cc2-c2ccc3c(ccc4ccccc43)c2)cc1 [OSU03012] (first compound 1 µM, partner dose 1 µM) | 635 | 164 | 53.8 | 1100 | 66.6 | 246 | 71.3 | 96.5 | 286 | 132 | 73.7 | 36.5 | 110 | 122 | 243 | 1740 | 87.5 | 31.7 | 106
Cc1ccc(Nc2nccc(N(C)c3ccc4c(C)n(C)nc4c3)n2)cc1S(N)(=O)=O [Pazopanib] + Cc1cc(N2CCOCC2)cc2[nH]c(-c3c(NC[C@@H](O)c4cccc(Cl)c4)cc[nH]c3=O)nc12 [BMS536924] (first compound 0.4 µM, partner dose 0.2 µM) | 286 | 20.5 | 96.7 | 183 | 103 | 143 | 75.9 | 101 | 66 | 126 | 189 | 102 | 95.3 | 73.4 | 219 | 98.9 | 515 | 77.1 | 109
O=C(Nc1cc(C(F)(F)F)cc(C(F)(F)F)c1)c1cc(Cl)ccc1O + NC(=O)Nc1cc(-c2cccc(F)c2)sc1C(=O)N[C@H]1CCCNC1 [AZD7762] (first compound 0.016 µM, partner dose 0.02 µM) | 79.7 | 46.3 | 87 | 321 | 75 | 49.1 | 118 | 75.6 | 121 | 95.8 | 55.2 | 80.6 | 43.3 | 35 | 69 | 252 | 40.5 | 119 | 87
Cc1cc(Nc2cc(N3CCN(C)CC3)nc(Sc3ccc(NC(=O)C4CC4)cc3)n2)n[nH]1 [Tozasertib] + C=CCn1c(=O)c2cnc(Nc3ccc(N4CCN(C)CC4)cc3)nc2n1-c1cccc(C(C)(C)O)n1 [MK1775] (first compound 0.006 µM, partner dose 0.02 µM) | 71.8 | 98.5 | 103 | 183 | 96.8 | 153 | 110 | 104 | 184 | 74.9 | 46.3 | 101 | 67.8 | 75.5 | 103 | 48.2 | 132 | 199 | 71.4
O=c1[nH]nc(Sc2ncc([N+](=O)[O-])s2)n1-c1ccc2c(c1)OCCO2 + CC1(C)NC(=O)N(c2ccc([N+](=O)[O-])c(C(F)(F)F)c2)C1=O [nilutamide] (first compound 0.2 µM, partner dose 1 µM) | 66.4 | 103 | 92.7 | 52.3 | 114 | 56.5 | 137 | 94.4 | 68.5 | 119 | 68.1 | 59.1 | 52.3 | 87.4 | 87.8 | 44.7 | 82.4 | 44.3 | 61.7
O=C(/C=C/c1cccnc1)NCCCCC1CCN(C(=O)c2ccccc2)CC1 + C=CCn1c(=O)c2cnc(Nc3ccc(N4CCN(C)CC4)cc3)nc2n1-c1cccc(C(C)(C)O)n1 [MK1775] (first compound 0.01 µM, partner dose 0.02 µM) | 87.4 | 116 | 45.2 | 1240 | 133 | 2230 | 131 | 109 | 453 | 778 | 289 | 135 | 232 | 2470 | 315 | 83.6 | 106 | 104 | 420
Cc1cn(-c2cc(NC(=O)c3ccc(C)c(Nc4nccc(-c5cccnc5)n4)c3)cc(C(F)(F)F)c2)cn1 [nilotinib] + O=C(O)c1ccc(-c2c[nH]c3ncc(-c4ccccc4)cc23)cc1C1CCCC1 [GSK650394] (first compound 0.2 µM, partner dose 0.16 µM) | 91.9 | 161 | 38.7 | 76.8 | 144 | 355 | 120 | 85.9 | 104 | 103 | 103 | 92.3 | 59.5 | 93.7 | 88.3 | 120 | 87.9 | 86.4 | 154

Part of the list above, reduced to cleaved PARP positive nuclei fraction (CBRC008) [%], cleaved PARP positive nuclei fraction (COLO800) [%] and cleaved PARP positive nuclei fraction (CBRC013) [%]:
SMILES | cleaved PARP positive nuclei fraction (CBRC008) [%] | cleaved PARP positive nuclei fraction (COLO800) [%] | cleaved PARP positive nuclei fraction (CBRC013) [%]
O=C(/C=C/c1cccnc1)NCCCCC1CCN(C(=O)c2ccccc2)CC1 + C=CCn1c(=O)c2cnc(Nc3ccc(N4CCN(C)CC4)cc3)nc2n1-c1cccc(C(C)(C)O)n1 [MK1775] (first compound 0.01 µM, partner dose 0.02 µM) | 2230 | 135 | 131
Cc1cn(-c2cc(NC(=O)c3ccc(C)c(Nc4nccc(-c5cccnc5)n4)c3)cc(C(F)(F)F)c2)cn1 [nilotinib] + O=C(O)c1ccc(-c2c[nH]c3ncc(-c4ccccc4)cc23)cc1C1CCCC1 [GSK650394] (first compound 0.2 µM, partner dose 0.16 µM) | 355 | 92.3 | 120
